The test concerns BALB/cJ mice, ADJ-PC-6 ip tumor, median survival T/C. The test is described as follows: NCI In Vivo Anticancer Drug Screen. Data for tumor model ADJ-PC-6 (intraperitoneal) in BALB/cJ mice. The settings on record: T/C endpoint: median survival time, higher T/C = longer survival. The protocol: The antitumor activity of compounds was measured in mice bearing transplantable tumors. Survival or tumor size were measured and the results are expressed as the measurement made in the treated group (T) divided by the measurement made in the vehicle treated control group (C). The tumor model used in this assay is ADJ-PC-6 (intraperitoneal) in BALB/cJ mice

The mark [1] stands for this setting: dose: 20.0 mg/kg/injection, schedule: Q01DX009 (ip), vehicle: saline with Tween-80.
[2] abbreviates: dose: 80.0 mg/kg/injection, schedule: Q01DX009 (ip), vehicle: saline with Tween-80.
[3] abbreviates: dose: 0.75 mg/kg/injection, schedule: Q04DX003 (iv), vehicle: saline.
Where [4] appears, read: dose: 40.0 mg/kg/injection, schedule: Q01DX009 (ip), vehicle: saline.
[5] abbreviates: dose: 200.0 mg/kg/injection, schedule: Q04DX003 (ip), vehicle: alkali diluted with saline.

The list is a part of this screen's results and no random one: it gathers tests that were run many times, whatever their T/C, doses with no T/C, and many T/C values between a quarter and a half above the control. Further doses and runs are listed elsewhere. T/C: endpoint of the treated group in % of that of the vehicle group. Some entries give survivors of the animals treated and no T/C: the source files T/C as zero there, which appears to mark a toxic dose or a test without result, not a measured value. Some survivor counts are full or nearly so, which does not show that the dose was tolerated: the source hardly ever lists a survival T/C far under the control, and the zero likely stands for such cases as well. Survivors were counted at the toxicity check, usually on the fifth day, unless a day is given; later deaths do not show. Schedule codes are those of the source, taken here to give the interval after Q, in days (D) or hours (H), and the number of doses after X. Brackets with × give the number of equal values in this list. Some structures stand for samples that the source files as different forms (salt, stereo form or complex); doses refer to the form tested. Some entries were tested several times; the results are listed from low to high. For survival time, this PubChem deposit counts one and a half times the control or more as active, and values a quarter to a half above the control carry no call in these data; other NCI protocols may use other cut-offs.

In PubChem BioAssay AID184 (DTP/NCI, 2004) one finds survivor count and T/C data, which are given here for 17 compounds.

As to `O=C1NC(=O)C2C3C=CC(C12)C1C2C(=O)NC(=O)C2C31` (configuration not stated), the survivor count by setting is: (dose: 5.0 mg/kg/injection, schedule: Q01DX009 (ip), vehicle: saline with Tween-80) 8 of 8 on day 9; under setting [1], 6 of 8 on day 9; under setting [2], 2 of 8 on day 9. The T/C under setting [1] is 140 % of control; the T/C (dose: 40.0 mg/kg/injection, schedule: Q01DX009 (ip), vehicle: saline with Tween-80, evaluated on day 60) is 145 % of control; the T/C (dose: 40.0 mg/kg/injection, schedule: Q01DX009 (ip), vehicle: saline with Tween-80, evaluated on day 75) is 132 % of control.
`O=C(O)CCCc1ccc(N(CCCl)CCCl)cc1`: the T/C (dose: 10.0 mg/kg/injection, schedule: Q04DX003 (ip), vehicle: saline with Tween-80) is 142 % of control.
Take `Nc1nc(F)nc2c1ncn2C1OC(COP(=O)(O)O)C(O)C1O` (configuration not stated): the T/C (dose: 200.0 mg/kg/injection, schedule: Q01DX009 (ip), vehicle: saline) is 136 % of control. In addition, the survivor count (dose: 400.0 mg/kg/injection, schedule: Q01DX009 (ip), vehicle: saline) is listed as 1 of 8 on day 9.
On to `O=C1c2c(O)ccc(O)c2C(=O)c2c(NCCNCCO)ccc(NCCNCCO)c21`, for which the T/C is 142 % of control (dose: 0.38 mg/kg/injection, schedule: Q04DX003 (iv), vehicle: saline) and 132 % of control under setting [3]. In addition, the survivor count is reported as 7 of 7 on day 9 under setting [3]; 8 of 8 on day 9 (dose: 4.0 mg/kg/injection, schedule: Q04DX003 (ip), vehicle: water); 8 of 8 on day 9 (dose: 6.0 mg/kg/injection, schedule: Q04DX003 (ip), vehicle: saline); 5 of 8 on day 13 (dose: 8.0 mg/kg/injection, schedule: Q04DX003 (ip), vehicle: saline); 7 of 8 on day 9 (dose: 8.0 mg/kg/injection, schedule: Q04DX003 (ip), vehicle: water).
Regarding `CC(=O)N(C)c1ccc(Nc2cc(C)[nH]c3ccc4ncnc4c23)cc1`, the survivor count by setting is: (dose: 80.0 mg/kg/injection, schedule: Q04DX003 (ip), vehicle: saline) 2 of 8 on day 9; (dose: 160.0 mg/kg/injection, schedule: Q04DX003 (ip), vehicle: saline) 5 of 8 on day 9.
As to `N[C@H](C(=O)O)[C@@H]1CC(Cl)=NO1`, the T/C (dose: 2.0 mg/kg/injection, schedule: Q01DX009 (ip), vehicle: saline) is 149 % of control. Further, the survivor count runs as follows: (dose: 4.0 mg/kg/injection, schedule: Q01DX009 (ip), vehicle: saline) 6 of 8 on day 9; (dose: 8.0 mg/kg/injection, schedule: Q01DX009 (ip), vehicle: saline) 3 of 8 on day 9; (dose: 16.0 mg/kg/injection, schedule: Q01DX009 (ip), vehicle: saline) 1 of 8 on day 9.
In the case of `ClCC[N+]12CC[N+](CCCl)(CC1)C2`, the survivor count (dose: 20.0 mg/kg/injection, schedule: Q01DX009 (ip), vehicle: saline) was 8 of 8 on day 9 and the survivor count under setting [4] is reported as 8 of 8 on day 9.
In the case of `CC[C@](O)(C(=O)O)c1cc2n(c(=O)c1CO)Cc1cc3ccccc3nc1-2`, the T/C (dose: 5.0 mg/kg/injection, schedule: Q04DX003 (ip), vehicle: saline) was 130 % of control.
Consider `CCN(CC)CCNc1ccc(C)c2sc3ccccc3c(=O)c12`, for which the survivor count is 8 of 8 on day 9 (dose: 25.0 mg/kg/injection, schedule: Q04DX003 (ip), vehicle: water) and 5 of 8 on day 9 (dose: 200.0 mg/kg/injection, schedule: Q04DX003 (ip), vehicle: water).
For the compound `NC(C/[N+]([O-])=N/O)C(=O)O` (configuration not stated), the T/C was 134 % of control (dose: 62.5 mg/kg/injection, schedule: Q04DX003 (ip), vehicle: alkali diluted with saline); 140 % of control (dose: 125.0 mg/kg/injection, schedule: Q04DX003 (ip), vehicle: alkali diluted with saline); 130 % of control under setting [5]. Further, the survivor count (dose: 1000.0 mg/kg/injection, schedule: Q04DX003 (ip), vehicle: alkali diluted with saline) is listed as 4 of 8 on day 9.
For `CC1(C)N=C(N)N=C(N)N1c1ccc(CCCCc2ccc(S(=O)(=O)F)cc2Cl)c(Cl)c1`, the T/C under setting [4] is 125 % of control.
For the compound `CO[C@H]1C[C@](C)(O)Cc2cc3c(c(O)c21)C(=O)c1c(O)cc2c(c1C3=O)O[C@@H]1O[C@@]2(C)[C@H](O)[C@@H](N(C)C)[C@@H]1O`, the T/C (dose: 3.75 mg/kg/injection, schedule: Q04DX003 (ip), vehicle: saline) was 142 % of control and the T/C (dose: 6.25 mg/kg/injection, schedule: Q04DX003 (ip), vehicle: saline) was 146 % of control. Further, the survivor count is, setting by setting: (dose: 50.0 mg/kg/injection, schedule: Q04DX003 (ip), vehicle: saline) 8 of 8; (dose: 100.0 mg/kg/injection, schedule: Q04DX003 (ip), vehicle: saline) 7 of 8.
Regarding `CCC1(O)CC2CN(CCc3c([nH]c4ccccc34)C(C(=O)OC)(c3cc4c(cc3OC)N(C)C3C(O)(C(N)=O)C(O)C5(CC)C=CCN6CCC43C65)C2)C1` (configuration not stated) (tested in a mixture with another compound), the T/C (dose: 0.5 mg/kg/injection, schedule: Q04DX003 (ip), vehicle: saline) is 137 % of control. For the same compound, the survivor count is 7 of 7 on day 9 (dose: 1.0 mg/kg/injection, schedule: Q04DX003 (ip), vehicle: saline); 3 of 8 on day 9 and 4 of 8 on day 9 (dose: 4.0 mg/kg/injection, schedule: Q04DX003 (ip), vehicle: saline).
Regarding `CO[C@H]1C[C@@H]2CC[C@@H](C)[C@@](O)(O2)C(=O)C(=O)N2CCCC[C@H]2C(=O)O[C@H]([C@H](C)C[C@@H]2CC[C@@H](O)[C@H](OC)C2)CC(=O)[C@H](C)C=C(C)[C@@H](O)[C@@H](OC)C(=O)[C@H](C)C[C@H](C)/C=C/C=C/C=C1C`, the survivor count is reported as 8 of 8 on day 9 (dose: 12.5 mg/kg/injection, schedule: Q01DX009 (ip), vehicle: saline) and 8 of 8 on day 9 (dose: 120.0 mg/kg/injection, schedule: Q01DX009 (ip), vehicle: saline with Tween-80). For the same compound, the T/C (dose: 15.0 mg/kg/injection, schedule: Q01DX009 (ip), vehicle: saline with Tween-80) is 132 % of control.
For the compound `CN(C)c1nc(N(C)C)nc(N(C)C)n1`, the T/C is 130 % of control (dose: 80.0 mg/kg/injection, schedule: Q01DX009 (ip), vehicle: Klucel (hydroxypropylcellulose) (HPC)) and 125 % of control under setting [2]. The survivor count is on record as 0 of 10 on day 9 (dose: 160.0 mg/kg/injection, schedule: Q01DX009 (ip), vehicle: Klucel (hydroxypropylcellulose) (HPC)); 4 of 8 on day 9 (dose: 160.0 mg/kg/injection, schedule: Q01DX009 (ip), vehicle: saline with Tween-80); 0 of 8 on day 9 (dose: 320.0 mg/kg/injection, schedule: Q01DX009 (ip), vehicle: saline with Tween-80).
With `S=c1nc[nH]c2nc[nH]c12`, the survivor count was 10 of 10 on day 9 under setting [5]; 1 of 10 on day 9 and 3 of 8 on day 9 (dose: 400.0 mg/kg/injection, schedule: Q04DX003 (ip), vehicle: alkali diluted with saline); 10 of 10 on day 9 (2×) (dose: 400.0 mg/kg/injection, schedule: Q04DX003 (ip), vehicle: alkali diluted with water).
Take `COc1cccc2c1C(=O)c1c(O)c3c(c(O)c1C2=O)C[C@@](O)(C(C)=O)C[C@@H]3OC1CC(N(Cc2ccccc2)Cc2ccccc2)C(O)C(C)O1` (some centres not stated): the survivor count is listed as 7 of 8 on day 9 (dose: 40.0 mg/kg/injection, schedule: Q04DX003 (ip), vehicle: saline with Tween-80) and 6 of 8 on day 9 (dose: 80.0 mg/kg/injection, schedule: Q04DX003 (ip), vehicle: saline with Tween-80).
